Measurements from the supplement of paper PMC5836539.
± gives the standard deviation of the averaged measurements. This data set is noisy: repeats of one test often differ as much as different tests do.

The chains behind the UniProt entries cited, without tags or fusion partners. Where a name states a change or a piece, a line headed by the entry shows the natural chain unless it says otherwise.
UniProt Q15276: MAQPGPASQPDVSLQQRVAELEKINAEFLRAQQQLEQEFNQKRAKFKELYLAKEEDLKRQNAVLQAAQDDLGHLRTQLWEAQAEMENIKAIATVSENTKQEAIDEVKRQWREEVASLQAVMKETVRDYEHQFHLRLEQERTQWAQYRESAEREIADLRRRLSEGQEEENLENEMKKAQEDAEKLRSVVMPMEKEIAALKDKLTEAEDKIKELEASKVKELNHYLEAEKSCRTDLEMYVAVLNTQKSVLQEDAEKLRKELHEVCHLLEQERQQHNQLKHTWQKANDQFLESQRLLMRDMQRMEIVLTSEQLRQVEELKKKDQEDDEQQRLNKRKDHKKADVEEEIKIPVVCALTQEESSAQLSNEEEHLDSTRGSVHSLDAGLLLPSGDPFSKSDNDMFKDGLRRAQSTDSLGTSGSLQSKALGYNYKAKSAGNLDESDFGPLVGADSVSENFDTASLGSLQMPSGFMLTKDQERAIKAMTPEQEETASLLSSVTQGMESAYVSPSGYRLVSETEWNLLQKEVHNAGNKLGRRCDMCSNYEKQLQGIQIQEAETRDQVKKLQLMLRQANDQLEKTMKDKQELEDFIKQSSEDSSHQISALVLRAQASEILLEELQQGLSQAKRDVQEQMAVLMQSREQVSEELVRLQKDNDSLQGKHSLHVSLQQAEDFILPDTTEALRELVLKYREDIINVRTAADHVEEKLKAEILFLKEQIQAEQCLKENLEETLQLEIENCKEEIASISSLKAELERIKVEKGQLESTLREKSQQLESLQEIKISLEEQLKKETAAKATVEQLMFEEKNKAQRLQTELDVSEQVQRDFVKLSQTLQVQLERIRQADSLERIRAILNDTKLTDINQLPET
UniProt Q99638: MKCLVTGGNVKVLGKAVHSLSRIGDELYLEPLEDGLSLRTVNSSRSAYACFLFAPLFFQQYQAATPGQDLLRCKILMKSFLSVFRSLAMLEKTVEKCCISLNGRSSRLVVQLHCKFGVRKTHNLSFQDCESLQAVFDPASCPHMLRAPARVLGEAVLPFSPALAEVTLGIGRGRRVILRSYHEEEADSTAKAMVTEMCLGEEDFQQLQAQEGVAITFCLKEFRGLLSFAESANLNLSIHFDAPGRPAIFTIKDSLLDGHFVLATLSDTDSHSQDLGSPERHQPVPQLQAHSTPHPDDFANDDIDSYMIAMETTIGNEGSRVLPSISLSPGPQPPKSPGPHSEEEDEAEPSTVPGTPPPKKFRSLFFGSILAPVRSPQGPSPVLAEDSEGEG
UniProt O60216: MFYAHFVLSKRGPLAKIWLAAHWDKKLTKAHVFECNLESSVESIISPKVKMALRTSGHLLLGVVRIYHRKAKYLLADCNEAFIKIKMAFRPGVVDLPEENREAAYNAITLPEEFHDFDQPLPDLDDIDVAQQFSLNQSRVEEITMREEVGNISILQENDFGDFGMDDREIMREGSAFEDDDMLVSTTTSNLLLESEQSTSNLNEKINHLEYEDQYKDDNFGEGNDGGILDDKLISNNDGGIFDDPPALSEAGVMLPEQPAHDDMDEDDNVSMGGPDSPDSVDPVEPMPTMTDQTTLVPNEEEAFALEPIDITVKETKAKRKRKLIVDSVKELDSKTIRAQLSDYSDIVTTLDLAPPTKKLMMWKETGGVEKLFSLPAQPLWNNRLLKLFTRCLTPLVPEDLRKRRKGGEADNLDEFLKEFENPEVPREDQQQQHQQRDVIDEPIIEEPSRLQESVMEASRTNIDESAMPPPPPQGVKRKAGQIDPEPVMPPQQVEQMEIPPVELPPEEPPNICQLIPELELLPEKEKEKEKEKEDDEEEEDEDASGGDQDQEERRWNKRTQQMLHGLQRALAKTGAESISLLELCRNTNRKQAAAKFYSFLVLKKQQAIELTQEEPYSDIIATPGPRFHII
UniProt P46060: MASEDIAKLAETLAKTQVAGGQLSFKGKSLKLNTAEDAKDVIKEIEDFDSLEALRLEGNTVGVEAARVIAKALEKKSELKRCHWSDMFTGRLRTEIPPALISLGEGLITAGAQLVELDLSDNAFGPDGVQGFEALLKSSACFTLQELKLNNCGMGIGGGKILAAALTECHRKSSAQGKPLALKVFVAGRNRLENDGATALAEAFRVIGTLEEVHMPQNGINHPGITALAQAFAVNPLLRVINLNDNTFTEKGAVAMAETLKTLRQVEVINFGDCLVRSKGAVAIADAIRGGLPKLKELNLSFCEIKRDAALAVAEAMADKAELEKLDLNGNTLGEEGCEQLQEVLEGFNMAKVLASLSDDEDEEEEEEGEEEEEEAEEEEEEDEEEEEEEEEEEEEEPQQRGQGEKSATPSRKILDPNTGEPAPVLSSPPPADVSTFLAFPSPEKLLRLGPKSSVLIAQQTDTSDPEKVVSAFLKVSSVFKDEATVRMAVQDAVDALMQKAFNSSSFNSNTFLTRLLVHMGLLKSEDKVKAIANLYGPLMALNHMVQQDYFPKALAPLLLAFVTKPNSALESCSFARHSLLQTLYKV
UniProt P06400: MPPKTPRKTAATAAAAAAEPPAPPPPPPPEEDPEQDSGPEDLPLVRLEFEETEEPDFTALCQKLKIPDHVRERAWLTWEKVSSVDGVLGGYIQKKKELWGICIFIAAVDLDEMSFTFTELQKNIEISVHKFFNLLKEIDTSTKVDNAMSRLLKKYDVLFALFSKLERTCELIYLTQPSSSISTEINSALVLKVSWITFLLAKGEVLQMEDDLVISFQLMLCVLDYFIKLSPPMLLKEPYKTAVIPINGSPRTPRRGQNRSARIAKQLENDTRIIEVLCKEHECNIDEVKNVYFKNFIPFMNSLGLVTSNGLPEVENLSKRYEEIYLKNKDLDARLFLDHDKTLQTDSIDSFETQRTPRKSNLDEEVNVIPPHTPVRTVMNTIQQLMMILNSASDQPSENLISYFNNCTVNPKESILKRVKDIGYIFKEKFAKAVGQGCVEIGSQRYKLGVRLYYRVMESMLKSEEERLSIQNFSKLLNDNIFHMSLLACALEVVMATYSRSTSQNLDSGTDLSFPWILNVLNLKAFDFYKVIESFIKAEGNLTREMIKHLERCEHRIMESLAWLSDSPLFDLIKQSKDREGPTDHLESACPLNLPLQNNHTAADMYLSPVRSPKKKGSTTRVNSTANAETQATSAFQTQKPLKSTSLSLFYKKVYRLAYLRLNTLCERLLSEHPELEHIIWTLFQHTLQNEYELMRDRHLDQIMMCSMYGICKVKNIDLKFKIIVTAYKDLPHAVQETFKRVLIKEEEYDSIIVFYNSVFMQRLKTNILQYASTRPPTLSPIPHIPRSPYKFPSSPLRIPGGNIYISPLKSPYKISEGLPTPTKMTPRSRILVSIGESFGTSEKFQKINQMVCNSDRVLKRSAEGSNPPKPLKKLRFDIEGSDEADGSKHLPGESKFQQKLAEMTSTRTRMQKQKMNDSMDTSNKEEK
UniProt Q9NTZ6: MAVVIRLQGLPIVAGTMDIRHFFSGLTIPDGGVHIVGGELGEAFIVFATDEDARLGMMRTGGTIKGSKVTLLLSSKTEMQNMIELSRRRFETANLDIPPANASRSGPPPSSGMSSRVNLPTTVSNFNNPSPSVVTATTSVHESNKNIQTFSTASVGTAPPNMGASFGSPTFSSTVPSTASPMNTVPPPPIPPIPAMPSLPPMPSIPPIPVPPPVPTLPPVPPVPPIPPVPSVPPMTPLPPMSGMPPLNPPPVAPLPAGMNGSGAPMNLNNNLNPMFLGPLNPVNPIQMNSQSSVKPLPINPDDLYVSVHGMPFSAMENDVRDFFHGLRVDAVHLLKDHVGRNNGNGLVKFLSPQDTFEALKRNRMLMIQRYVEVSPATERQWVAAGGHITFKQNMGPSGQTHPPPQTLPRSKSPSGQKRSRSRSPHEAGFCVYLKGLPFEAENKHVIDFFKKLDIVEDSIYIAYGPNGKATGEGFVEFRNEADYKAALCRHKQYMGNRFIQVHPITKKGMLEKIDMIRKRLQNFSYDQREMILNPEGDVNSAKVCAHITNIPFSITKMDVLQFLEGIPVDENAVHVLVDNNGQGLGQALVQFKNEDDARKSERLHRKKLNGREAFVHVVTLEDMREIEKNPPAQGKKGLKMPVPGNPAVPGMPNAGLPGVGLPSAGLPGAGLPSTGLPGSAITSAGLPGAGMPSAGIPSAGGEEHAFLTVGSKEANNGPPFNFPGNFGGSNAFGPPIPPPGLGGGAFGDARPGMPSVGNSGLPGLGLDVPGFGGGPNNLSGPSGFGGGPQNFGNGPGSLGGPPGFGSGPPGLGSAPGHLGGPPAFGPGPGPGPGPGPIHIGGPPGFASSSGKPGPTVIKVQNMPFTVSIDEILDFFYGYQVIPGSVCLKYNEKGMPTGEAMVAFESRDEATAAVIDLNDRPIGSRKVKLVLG
UniProt Q8IXT5: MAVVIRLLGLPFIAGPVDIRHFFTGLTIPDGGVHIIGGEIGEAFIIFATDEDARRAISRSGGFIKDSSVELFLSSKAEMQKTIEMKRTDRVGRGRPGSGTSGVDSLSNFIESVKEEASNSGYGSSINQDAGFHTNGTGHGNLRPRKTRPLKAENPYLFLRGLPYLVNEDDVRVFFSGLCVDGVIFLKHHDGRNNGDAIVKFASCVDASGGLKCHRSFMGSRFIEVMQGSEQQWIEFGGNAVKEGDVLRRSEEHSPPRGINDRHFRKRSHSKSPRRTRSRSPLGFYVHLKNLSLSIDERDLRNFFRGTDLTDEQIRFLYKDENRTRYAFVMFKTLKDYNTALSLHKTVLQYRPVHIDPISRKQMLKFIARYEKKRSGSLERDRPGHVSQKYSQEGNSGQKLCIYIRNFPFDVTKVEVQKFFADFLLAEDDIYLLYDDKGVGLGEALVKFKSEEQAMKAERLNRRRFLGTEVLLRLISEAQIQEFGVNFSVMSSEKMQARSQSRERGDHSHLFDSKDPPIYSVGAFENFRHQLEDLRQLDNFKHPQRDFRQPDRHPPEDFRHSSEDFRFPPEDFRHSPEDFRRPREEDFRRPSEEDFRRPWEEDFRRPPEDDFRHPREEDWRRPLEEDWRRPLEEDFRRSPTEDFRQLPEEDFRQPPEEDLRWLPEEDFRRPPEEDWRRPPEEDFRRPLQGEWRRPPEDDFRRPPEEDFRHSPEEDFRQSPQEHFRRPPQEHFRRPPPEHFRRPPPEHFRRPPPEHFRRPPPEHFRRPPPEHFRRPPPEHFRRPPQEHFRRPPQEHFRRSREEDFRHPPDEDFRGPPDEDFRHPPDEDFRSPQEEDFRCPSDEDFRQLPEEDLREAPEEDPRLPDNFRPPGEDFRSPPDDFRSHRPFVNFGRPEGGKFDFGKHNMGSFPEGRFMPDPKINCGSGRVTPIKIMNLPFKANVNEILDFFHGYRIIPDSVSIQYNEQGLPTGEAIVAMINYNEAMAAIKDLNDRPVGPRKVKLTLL
UniProt P49756, whole entry, looked up: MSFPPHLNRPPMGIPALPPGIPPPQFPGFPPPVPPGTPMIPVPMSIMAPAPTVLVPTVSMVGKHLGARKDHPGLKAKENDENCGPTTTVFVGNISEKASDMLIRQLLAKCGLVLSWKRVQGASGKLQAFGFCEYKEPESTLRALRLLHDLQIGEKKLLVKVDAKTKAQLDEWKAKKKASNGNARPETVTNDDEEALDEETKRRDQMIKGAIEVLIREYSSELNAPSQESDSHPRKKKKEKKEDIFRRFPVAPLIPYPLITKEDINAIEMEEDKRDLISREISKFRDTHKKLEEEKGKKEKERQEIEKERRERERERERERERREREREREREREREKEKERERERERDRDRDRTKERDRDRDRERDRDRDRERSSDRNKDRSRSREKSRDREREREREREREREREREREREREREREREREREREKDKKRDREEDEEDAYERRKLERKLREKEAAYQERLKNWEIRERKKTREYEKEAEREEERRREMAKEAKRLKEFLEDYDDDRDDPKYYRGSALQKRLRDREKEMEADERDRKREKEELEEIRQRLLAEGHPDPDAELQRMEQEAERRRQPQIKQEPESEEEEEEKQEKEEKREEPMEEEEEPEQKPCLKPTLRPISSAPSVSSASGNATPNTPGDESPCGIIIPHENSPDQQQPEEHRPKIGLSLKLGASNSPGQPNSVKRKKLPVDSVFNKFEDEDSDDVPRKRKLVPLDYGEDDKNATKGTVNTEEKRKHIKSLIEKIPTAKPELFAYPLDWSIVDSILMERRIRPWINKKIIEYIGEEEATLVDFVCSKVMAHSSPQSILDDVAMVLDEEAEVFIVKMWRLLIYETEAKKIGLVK

Compound: CC[C@@H](C)Nc1cc(C(=O)N[C@H]2C[C@H]3CC[C@@H](C2)N3c2ccc(C(=O)C3CC3)cn2)c(C)cc1C(N)=O [XL888]
Assay: phosphopeptide melting temperature shift (XL888 minus DMSO); higher = stabilised by drug treatment
Settings: 100 µM; treatment time 2 h; layout: intact cells; SK-Mel 28
Method: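 Phospho-TPP in intact SK-Mel 28 cells treated with 100 uM XL888 or DMSO for 2 h, heated at 10 temperatures (37-67 C) for 3 min, soluble fraction TMT10plex-labelled and TiO2 phospho-enriched. Melting curves were fitted per phosphopeptide; the value is the melting point difference (drug minus vehicle) in each of two biological replicates.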

Target	phosphopeptide melting temperature shift [°C]
RAB11FIP5 phosphosite_307 (phosphosite position: 307) (UniProt Q9BXF6)	2.9
RAB11FIP5 phosphosite_538 (phosphosite position: 538) (UniProt Q9BXF6)	0.834
RABEP1 phosphosite_377 (phosphosite position: 377) (UniProt Q15276)	3.25
RAD9A phosphosite_272 (phosphosite position: 272) (UniProt Q99638)	-2.27
RAD9A phosphosite_277 (phosphosite position: 277) (UniProt Q99638)	1.25 ± 1
RAD9A phosphosite_375 (phosphosite position: 375) (UniProt Q99638)	3.47
RAD9A phosphosite_387 (phosphosite position: 387) (UniProt Q99638)	3.47
RAD21 phosphosite_545 (phosphosite position: 545) (UniProt O60216)	-1.95
RAF1 phosphosite_295 (phosphosite position: 295) (UniProt P04049)	0.845 ± 0.56
RAF1 phosphosite_301 (phosphosite position: 301) (UniProt P04049)	2.79 ± 0.99
RAF1 phosphosite_621 (phosphosite position: 621) (UniProt P04049)	1.54 ± 2.8
RALBP1 phosphosite_62 (phosphosite position: 62) (UniProt Q15311)	-0.599 ± 1.2
RANBP2 phosphosite_2008 (phosphosite position: 2008) (UniProt P49792)	-1.23
RANBP2 phosphosite_2900 (phosphosite position: 2900) (UniProt P49792)	1.82 ± 0.95
RANGAP1 phosphosite_428 (phosphosite position: 428) (UniProt P46060)	-0.0982 ± 0.43
RANGAP1 phosphosite_442 (phosphosite position: 442) (UniProt P46060)	-0.297 ± 0.15
RAPH1 phosphosite_1154 (phosphosite position: 1154) (UniProt Q70E73)	-1.04
RB1 phosphosite_37 (phosphosite position: 37) (UniProt P06400)	2.32 ± 0.2
RBCK1 phosphosite_50 (phosphosite position: 50) (UniProt Q9BYM8)	1.38
RBM5 phosphosite_624 (phosphosite position: 624) (UniProt P52756)	5.81
RBM12 phosphosite_422 (phosphosite position: 422) (UniProt Q9NTZ6)	0.651 ± 0.3
RBM12 phosphosite_424 (phosphosite position: 424) (UniProt Q9NTZ6)	0.651 ± 0.3
RBM12B phosphosite_278 (phosphosite position: 278) (UniProt Q8IXT5)	1.65 ± 0.53
RBM12B phosphosite_280 (phosphosite position: 280) (UniProt Q8IXT5)	1.65 ± 0.53
RBM15B phosphosite_267 (phosphosite position: 267) (UniProt Q8NDT2)	1.26
RBM25 phosphosite_583 (phosphosite position: 583) (UniProt P49756)	0.763
RBM25 phosphosite_677 (phosphosite position: 677) (UniProt P49756)	1.34
RBM25 phosphosite_703 (phosphosite position: 703) (UniProt P49756)	1.65
RBM33 phosphosite_973 (phosphosite position: 973) (UniProt Q96EV2)	-3.46

Part of the list above in another layout:

| Target | phosphopeptide melting temperature shift [°C] |
| --- | --- |
| RBM5 phosphosite_624 (phosphosite position: 624) (UniProt P52756) | 5.81 |
| RBM12 phosphosite_422 (phosphosite position: 422) (UniProt Q9NTZ6) | 0.651 ± 0.3 |
